Results taken from ChEMBL document CHEMBL4680097 (J Med Chem, 2016).
pIC50: −log10 of the molar value.

Chains of the proteins cited; added tags and fusions are not shown. Lines headed by an entry give the natural chain unless they say otherwise; changes in a name come on top.
UniProt O15379: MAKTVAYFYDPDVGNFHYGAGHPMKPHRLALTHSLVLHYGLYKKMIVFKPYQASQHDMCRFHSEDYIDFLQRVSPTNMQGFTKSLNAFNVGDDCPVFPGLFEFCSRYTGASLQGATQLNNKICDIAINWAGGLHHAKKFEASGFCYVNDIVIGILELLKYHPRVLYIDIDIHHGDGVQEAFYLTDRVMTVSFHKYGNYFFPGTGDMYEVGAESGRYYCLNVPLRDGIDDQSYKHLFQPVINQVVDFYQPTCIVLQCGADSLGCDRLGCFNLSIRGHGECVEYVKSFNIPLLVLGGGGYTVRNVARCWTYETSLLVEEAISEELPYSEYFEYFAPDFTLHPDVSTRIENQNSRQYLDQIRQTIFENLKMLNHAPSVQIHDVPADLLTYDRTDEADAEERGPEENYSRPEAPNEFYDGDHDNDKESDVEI

Target: Histone deacetylase 3 (Homo sapiens, UniProt O15379)
Test: Inhibition of recombinant HDAC3 (unknown origin)incubated for 15 mins before substrate addition and measured after 30 to 45 mins by HDAC-Glo substrate
Outline: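 HDAC isoforms captured from HeLa cell lysate with plate-bound isoform-specific antibodies (lysate 100 µg/mL for HDAC1/2, 1 mg/mL for HDAC3/6); inhibitor in DMSO preincubated 15 min at room temperature, then HDAC-Glo substrate/developer 30–45 min; luminescence, background-corrected against no-antibody wells; % activity vs DMSO control; at least two independent trials, mean ± standard error. Concentrations are final.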

## CCCCCCCC(=O)SCC/C=C/[C@@H]1CC(=O)NCc2nc(cs2)C2=N[C@@](C)(CS2)C(=O)N[C@@H](C(C)C)C(=O)O1 [LARGAZOLE]
  pIC50: 7.30
